Measurements published in US8609680B2, “2,3-dihydro-1H-inden-1-yl-2,7-diazaspiro[3.5] nonane derivatives” (Pfizer Inc., priority 2010, dated 2013).
For at least one compound, name, drawing or mass did not settle the structure. Some compounds share one wording; it may come from a single statement.

Chains of the proteins cited; added tags and fusions are not shown.
UniProt Q92847, whole entry: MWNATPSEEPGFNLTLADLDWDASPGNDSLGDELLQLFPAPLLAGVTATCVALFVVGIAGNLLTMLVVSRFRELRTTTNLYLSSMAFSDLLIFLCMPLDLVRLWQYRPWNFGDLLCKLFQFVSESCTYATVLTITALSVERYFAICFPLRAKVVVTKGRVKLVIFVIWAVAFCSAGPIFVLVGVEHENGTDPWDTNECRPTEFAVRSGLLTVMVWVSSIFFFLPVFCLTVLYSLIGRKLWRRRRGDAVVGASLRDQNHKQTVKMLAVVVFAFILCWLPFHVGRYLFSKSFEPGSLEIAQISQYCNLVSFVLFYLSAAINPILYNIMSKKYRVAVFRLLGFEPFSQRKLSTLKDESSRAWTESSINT

What follows are molecules tested against T1, human GHSR1a (Homo sapiens, UniProt Q92847) (assay: Human Ghrelin Functional Assay (DELFIA GTP-binding assay)). Conditions: GTP-Europium exchange, human GHSR1a membranes, with and without ghrelin at EC80.
T1 construct: expressed in transfected cells; host or cells: HEK293 Tetracycline-Inducible cell line, used as membranes
Assay type: biochemical
Protocol: Human Ghrelin Functional Assay
To measure the ability of test compounds in the present invention to modulate the activity of human GHSR1a (agonize, antagonize, partially agonize, inversely agonize), a DELFIA GTP-binding assay (Perkin Elmer, AD0260 and AD0261) is performed. The assay monitors the ligand-dependent exchange of GDP for GTP. GPCR activation results in an increase in fluorescence as receptor-bound GDP is replaced by Europium-labeled GTP.
Ghrelin functional assays are performed in a final volume of 39.5 μl containing 720 ng human GHSR1a (HEK293 Tetracycline-Inducible cell line expressing the human growth secretagogue receptor la, prepared as membranes), 9 nM GTP-Europium and varying concentrations of test compound or vehicle. To test for receptor antagonism, membranes are incubated in the presence of agonist ghrelin (Anaspec, 24158) at the EC80 concentration, plus test compound or vehicle.
Briefly, test compounds are prepared at room temperature in 384-well plates (Matrix, 4340). […] Samples are then transferred as 6 μl to 384-well filter plates (Pall, 5071) containing 30 μl of 24 μg/ml hGHSR1a membrane and 0.35 mg/ml saponin (Perkin Elmer, AD0261) in basal buffer.
The mixture is incubated 24 minutes at room temperature with gentle shaking, followed by the addition of 3.5 μl of 100 nM GTP-Europium in 50 mM HEPES, pH 7.4. Samples are shielded from light and incubated for 90 minutes further at room temperature with gentle shaking. The reactions are suctioned dry with vacuum, washed three times with 75 μl ice cold 1× GTP Wash Solution (Perkin Elmer, AD0261), and immediately read on the Envision 2101 Multilabel Reader (Perkin Elmer) using excitation filter 320 nm and emission filter 615 nm.
`COc1ccc(CC(=O)N2CCC3(CC2)CN(C2CCc4cc(-c5ccnc(C)n5)ccc42)C3)cc1` (stereo not shown) [Example 1D] was tested, and the functional comment was “inverse agonist”.
In the case of `COc1ccc(CC(=O)N2CCC3(CC2)CN(C2CCc4cc(-c5ncc(C)cn5)ccc42)C3)cc1` (racemic) [Example 1E], the functional comment is reported as “inverse agonist”.
In the case of `Cc1ccnc(-c2ccc3c(c2)CCC3N2CC3(CCN(C(=O)Cc4cn5cc(C)sc5n4)CC3)C2)n1` (stereo not shown) [Example 1K], the functional comment is reported as “inverse agonist”.
For `O=C(Cc1n[nH]c2ccccc12)N1CCC2(CC1)CN(C1CCc3cc(-c4ncccn4)ccc31)C2` (stereo not shown) [Example 1C], the functional comment was “inverse agonist”.
